Laboratory results published in paper PMC7060279.
These are yes or no findings as the source states them, for the method shown.

Target: T1, CCN1-WT (recombinant matricellular protein CCN1) (UniProt P18406)
T1 sequence: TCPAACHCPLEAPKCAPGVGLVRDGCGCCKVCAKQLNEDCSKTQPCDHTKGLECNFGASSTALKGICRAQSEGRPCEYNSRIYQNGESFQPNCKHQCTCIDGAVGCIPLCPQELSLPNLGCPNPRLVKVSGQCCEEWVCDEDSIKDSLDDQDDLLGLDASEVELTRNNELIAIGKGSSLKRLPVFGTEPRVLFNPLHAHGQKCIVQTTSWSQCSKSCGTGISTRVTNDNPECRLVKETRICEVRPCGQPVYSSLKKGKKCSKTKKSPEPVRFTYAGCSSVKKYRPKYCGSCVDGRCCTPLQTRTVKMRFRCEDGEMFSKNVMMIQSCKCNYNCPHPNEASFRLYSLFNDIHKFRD
Assay: ELISA; solid-phase-binding assay: 96-well plates coated with serially diluted CCN1 in bicarbonate/carbonate buffer (100 mM, pH 9.6) overnight at 4 °C, blocked with PVA; hTLR2, hTLR4 or hCD14 (0.2 µg per well) added; detected with anti-hTLR2, anti-hTLR4 or anti-hCD14 antibodies, HRP/TMB, A450; both …

binding: no binding (tested: 200 ng per well)
B1: recombinant human CD14 (protein, UniProt P08571 20-345)
chain: TTPEPCELDDEDFRCVCNFSEPQPDWSEAFQCVSAVEVEIHAGGLNLEPFLKRVDADADPRQYADTVKALRVRRLTVGAAQVPAQLLVGALRVLAYSRLKELTLEDLKITGTMPPLPLEATGLALSSLRLRNVSWATGRSWLAELQQWLKPGLKVLSIAQAHSPAFSCEQVRAFPALTSLDLSDNPGLGERGLMAALCPHKFPAIQNLALRNTGMETPTGVCAALAAAGVQPHSLDLSHNSLRATVNPSAPRCMWSSALNSLNLSFAGLEQVPKGLPAKLRVLDLSCNRLNRAPQPDELPEVDNLTLDGNPFLVPGTALPHEGSMN
